{"source": "PubChem BioAssay AID743121 (NCATS, 2013)", "assay": "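Partners whose loss is lethal together with topoisomerase I blockade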 (primary screen)", "cell system": "MDA-MB-231 cells, a human breast cancer line", "reagents": "single siRNA against human genes, 20 nM siRNA (0.8 pmol per well)", "duration": "120 h (drug added 48 h after transfection, read 72 h later)", "treatment": "camptothecin 20 nM (about EC30) for 72 h; vehicle 0.1% DMSO in parallel plates", "measured": "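Cell viability by ATP luminescence (CellTiter-Glo) as % of non-targeting siRNA wells, and the log2 ratio of viability without drug over viability with camptothecin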", "scale": "log2 vehicle/camptothecin viability: higher = stronger sensitisation to camptothecin", "hit rule": "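Each gene scored by redundant siRNA activity (RSA) over its individual siRNA ratios; a gene is called active at p < 0.001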", "note": "The deposit covers about 26,000 reagents; shown is an unselected part. 167 of them (0.63%) count as active. 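Calls are per gene from RSA p-values that are not deposited; an individual active-marked siRNA can sensitise only weakly.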 The numbers tell different reagents against one gene apart. Further read-outs or replicates are left out here."}
{"target": "SERPINB12", "reagent no.": 1, "log2 vehicle/camptothecin viability": -0.187, "activity call": "inactive"}
{"target": "SERPINB12", "reagent no.": 2, "log2 vehicle/camptothecin viability": -0.29, "activity call": "inactive"}
{"target": "SERPINB12", "reagent no.": 3, "log2 vehicle/camptothecin viability": 0.0876, "activity call": "inactive"}
{"target": "CBR1", "reagent no.": 1, "log2 vehicle/camptothecin viability": 0.183, "activity call": "inactive"}
{"target": "CBR1", "reagent no.": 2, "log2 vehicle/camptothecin viability": -0.0788, "activity call": "inactive"}
{"target": "CBR1", "reagent no.": 3, "log2 vehicle/camptothecin viability": 0.0513, "activity call": "inactive"}
{"target": "CBR1", "reagent no.": 4, "log2 vehicle/camptothecin viability": -0.214, "activity call": "inactive"}
{"target": "MKRN3", "reagent no.": 1, "log2 vehicle/camptothecin viability": -0.299, "activity call": "inactive"}
{"target": "MKRN3", "reagent no.": 2, "log2 vehicle/camptothecin viability": 0.0438, "activity call": "inactive"}
{"target": "SQOR", "reagent no.": 1, "log2 vehicle/camptothecin viability": 0.347, "activity call": "inactive"}
{"target": "SQOR", "reagent no.": 2, "log2 vehicle/camptothecin viability": -0.139, "activity call": "inactive"}
{"target": "SQOR", "reagent no.": 3, "log2 vehicle/camptothecin viability": -0.134, "activity call": "inactive"}
{"target": "TMPRSS9", "reagent no.": 1, "log2 vehicle/camptothecin viability": 0.0641, "activity call": "inactive"}
{"target": "TMPRSS9", "reagent no.": 2, "log2 vehicle/camptothecin viability": -0.0656, "activity call": "inactive"}
{"target": "TMPRSS9", "reagent no.": 3, "log2 vehicle/camptothecin viability": -0.241, "activity call": "inactive"}
{"target": "TMPRSS9", "reagent no.": 4, "log2 vehicle/camptothecin viability": 0.0686, "activity call": "inactive"}
{"target": "PKD2L1", "reagent no.": 1, "log2 vehicle/camptothecin viability": -0.265, "activity call": "inactive"}
{"target": "PKD2L1", "reagent no.": 2, "log2 vehicle/camptothecin viability": -0.188, "activity call": "inactive"}
{"target": "PKD2L1", "reagent no.": 3, "log2 vehicle/camptothecin viability": -0.0654, "activity call": "inactive"}
{"target": "BDKRB2", "reagent no.": 1, "log2 vehicle/camptothecin viability": 0.356, "activity call": "inactive"}
{"target": "BDKRB2", "reagent no.": 2, "log2 vehicle/camptothecin viability": -0.727, "activity call": "inactive"}
{"target": "BDKRB2", "reagent no.": 3, "log2 vehicle/camptothecin viability": -0.0441, "activity call": "inactive"}
{"target": "BDKRB2", "reagent no.": 4, "log2 vehicle/camptothecin viability": -0.348, "activity call": "inactive"}
{"target": "ADH1A", "reagent no.": 1, "log2 vehicle/camptothecin viability": -0.0454, "activity call": "inactive"}
{"target": "ADH1A", "reagent no.": 2, "log2 vehicle/camptothecin viability": 0.0339, "activity call": "inactive"}
{"target": "ADH1A", "reagent no.": 3, "log2 vehicle/camptothecin viability": -0.102, "activity call": "inactive"}
{"target": "ADH1A", "reagent no.": 4, "log2 vehicle/camptothecin viability": -0.0244, "activity call": "inactive"}
{"target": "TNFSF13B", "reagent no.": 1, "log2 vehicle/camptothecin viability": 1.13, "activity call": "inactive"}
{"target": "TNFSF13B", "reagent no.": 2, "log2 vehicle/camptothecin viability": -0.105, "activity call": "inactive"}
{"target": "TNFSF13B", "reagent no.": 3, "log2 vehicle/camptothecin viability": 0.0423, "activity call": "inactive"}
{"target": "TRIM33", "reagent no.": 1, "log2 vehicle/camptothecin viability": -0.329, "activity call": "inactive"}
{"target": "TRIM33", "reagent no.": 2, "log2 vehicle/camptothecin viability": -0.0752, "activity call": "inactive"}
{"target": "TRIM33", "reagent no.": 3, "log2 vehicle/camptothecin viability": 0.27, "activity call": "inactive"}
{"target": "TRIM33", "reagent no.": 4, "log2 vehicle/camptothecin viability": 0.00648, "activity call": "inactive"}
{"target": "TRIM33", "reagent no.": 5, "log2 vehicle/camptothecin viability": 0.498, "activity call": "inactive"}

Entries listed so far whose gene name starts with C or c (4):
{"target": "CBR1", "reagent no.": 1, "log2 vehicle/camptothecin viability": 0.183, "activity call": "inactive"}
{"target": "CBR1", "reagent no.": 2, "log2 vehicle/camptothecin viability": -0.0788, "activity call": "inactive"}
{"target": "CBR1", "reagent no.": 3, "log2 vehicle/camptothecin viability": 0.0513, "activity call": "inactive"}
{"target": "CBR1", "reagent no.": 4, "log2 vehicle/camptothecin viability": -0.214, "activity call": "inactive"}
